Results published in patent publication US20160235677A1, “METHOD OF CONVERTING A CRYSTALLINE COMPOUND TO AN AMORPHOUS COMPOUND, METHOD OF INCREASING THE SOLUBILITY OF A CRYSTALLINE COMPOUND IN A BIORELEVANT FLUID, AND NANOPARTICLES THAT ACHIEVE SUPERSATURATION” (Nanocopoeia, LLC., priority 2014, published 2016).
At least one compound was matched to its structure with a doubt left.

assay: XRD and DSC determinations of physical state of ENS-processed powders (Table B); assay type: physicochemical
Procedure: Thermal analysis is conducted using a TA Instruments Model Q200 DSC (New Castle, Del.) equipped with an RCS-90 refrigerated cooling system. Samples, in an amount of 3.5 mg±1.0 mg, are weighed into TA Instruments T-Zero aluminum pans and closed with lids. […] Nitrogen is used as the purge gas at a flow rate of 50 mL/min. All data analyses are performed using TA Universal Analysis 2000 software (TA Instruments, New Castle, Del.). T-Zero cell constant and temperature/enthalpy calibrations are conducted with the use of sapphire and indium standards, respectively.
X-ray powder diffraction is performed at room temperature using a Bruker D8 Discover using a Cu Kα radiation, point source filtered with a graphite monochromator and a Bruker Hi-Star two-dimensional x-ray detector (Bruker, Karlsruhe, Germany). Powder samples are pressed onto a sample holder made of single-crystal quartz cut off-axis. The reflected intensity is collected at 0.04° resolution from 2Θ=2° to 62° with an acquisition time of 20 minutes. Data analysis is performed using the JADE 8.0 software package (Materials Data Inc., Livermore, Calif.) with whole pattern fitting. The test method has a detection limit of 2% crystallinity.
A series of crystalline drug and polymer combinations were dissolved in solvents in the amounts and at the ratios set forth in Table B. The solutions were then sprayed using the ENS system described above. The resulting dry compounds were collected and analyzed according to the XRD, DSC and SEM test methods.

SMILES	XRD and DSC determinations of physical state (amorphous or crystalline)
Cc1ccc(-c2cc(C(F)(F)F)nn2-c2ccc(S(N)(=O)=O)cc2)cc1 [Celecoxib]	consistent with mainly amorphous material.
Cc1cnc(NC(=O)C2=C(O)c3ccccc3S(=O)(=O)N2C)s1 [Meloxicam]	consistent with crystalline material.
CC1(C)O[C@@H]2C[C@H]3[C@@H]4CCC5=CC(=O)C=C[C@]5(C)[C@@]4(F)[C@@H](O)C[C@]3(C)[C@]2(C(=O)CO)O1 [Triamcinolone Acetonide]	with partially amorphous material.
